Data taken from patent US7615646B2, “Chiral indole intermediates and their fluorescent cyanine dyes containing functional groups” (Carnegie Mellon University, priority 2002, dated 2009).
Some of these results come from one statement about several compounds together.

Experiment: Measurement of pKa values of pH-sensitive cyanine dyes (fluorescence intensity versus pH)
Assay type: physicochemical
Details: compared with dyes 6, 7 and 1
Method: The general method of pKa determination was performed as follows. Purified dye was dissolved in water to give a bulk stock solution (if necessary, a limited amount of acetonitrile was added to ensure solubility). By experiment, the volume of this stock solution that was required to be added to 10.0 ml of water+0.1% v/v trifluoroacetic acid, in order to give an absorbance of 0.5±0.02 at the dye peak wavelength, was determined. This volume of bulk stock solution was then added to 10.0 ml of water, to be used as the working stock solution.
Aqueous phosphate buffers were prepared covering the region of pH 4-9 {see “Data for Biochemical Research”, p. 432, 3rd edition, R. M. C Dawson, D. C. Elliott, W. H. Elliott & K. M. Jones, 1987 Oxford University Press. […] Plastic fluorescence cuvettes were then charged with 3.5 ml of each buffer. A fixed volume of dye working stock solution (in the range 50-250 μl) was added to a cuvette of buffer, the solution mixed and the fluorescence signal measured immediately {Perkin Elmer LS55 fluorimeter, excitation 640 nm. Emission spectrum was scanned and fluorescence intensity value at 680 nm recorded}. […] The graph of fluorescence intensity versus pH was plotted using PRISM, the data fitted to a sigmoidal dose-response curve and the pKa value extracted as the calculated IC50 value from the fitting.

SMILES: CC1(C)C(/C=C/C=C/C=C2/Nc3ccc(S(=O)(=O)O)cc3C2(C)CCCCCC(=O)O)=[N+](CCCCS(=O)(=O)[O-])c2ccc(Cl)cc21 (centres unmarked) [Example 3]
- raising of dye pKa by Cl para to the quaternized nitrogen: 0.3-0.4 units

SMILES: CC1(C)C(/C=C/C=C/C=C2/Nc3ccc(S(=O)(=O)O)cc3C2(C)C)=[N+](CCCCS(=O)(=O)[O-])c2ccc(Cl)cc21 [Example 9]
- raising of dye pKa by Cl para to the quaternized nitrogen: 0.3-0.4 units
